# Reference: the supplement of paper PMC10849652
# Amino acid sequences for entries named in this document (tags omitted). A change or cut given only in a name is not applied to a line headed by its entry.
# UniProt A2VDF0: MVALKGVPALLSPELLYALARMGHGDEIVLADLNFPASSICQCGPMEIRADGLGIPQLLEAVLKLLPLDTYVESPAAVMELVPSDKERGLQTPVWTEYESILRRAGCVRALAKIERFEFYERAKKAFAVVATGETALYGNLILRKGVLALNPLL
# UniProt Q9BTY2: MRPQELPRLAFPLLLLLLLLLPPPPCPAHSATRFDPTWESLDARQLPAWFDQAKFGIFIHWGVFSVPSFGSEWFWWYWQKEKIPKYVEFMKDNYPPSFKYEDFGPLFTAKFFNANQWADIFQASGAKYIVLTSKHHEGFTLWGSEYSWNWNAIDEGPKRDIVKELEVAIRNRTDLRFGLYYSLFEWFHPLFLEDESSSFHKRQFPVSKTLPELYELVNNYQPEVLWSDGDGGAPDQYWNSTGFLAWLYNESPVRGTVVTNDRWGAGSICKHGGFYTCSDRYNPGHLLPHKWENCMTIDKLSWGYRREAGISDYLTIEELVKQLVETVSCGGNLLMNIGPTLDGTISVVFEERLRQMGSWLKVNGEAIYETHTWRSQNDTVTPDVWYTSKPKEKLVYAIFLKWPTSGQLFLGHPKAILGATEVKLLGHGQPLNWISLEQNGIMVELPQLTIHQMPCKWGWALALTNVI
# UniProt Q9UQC2, whole entry, looked up: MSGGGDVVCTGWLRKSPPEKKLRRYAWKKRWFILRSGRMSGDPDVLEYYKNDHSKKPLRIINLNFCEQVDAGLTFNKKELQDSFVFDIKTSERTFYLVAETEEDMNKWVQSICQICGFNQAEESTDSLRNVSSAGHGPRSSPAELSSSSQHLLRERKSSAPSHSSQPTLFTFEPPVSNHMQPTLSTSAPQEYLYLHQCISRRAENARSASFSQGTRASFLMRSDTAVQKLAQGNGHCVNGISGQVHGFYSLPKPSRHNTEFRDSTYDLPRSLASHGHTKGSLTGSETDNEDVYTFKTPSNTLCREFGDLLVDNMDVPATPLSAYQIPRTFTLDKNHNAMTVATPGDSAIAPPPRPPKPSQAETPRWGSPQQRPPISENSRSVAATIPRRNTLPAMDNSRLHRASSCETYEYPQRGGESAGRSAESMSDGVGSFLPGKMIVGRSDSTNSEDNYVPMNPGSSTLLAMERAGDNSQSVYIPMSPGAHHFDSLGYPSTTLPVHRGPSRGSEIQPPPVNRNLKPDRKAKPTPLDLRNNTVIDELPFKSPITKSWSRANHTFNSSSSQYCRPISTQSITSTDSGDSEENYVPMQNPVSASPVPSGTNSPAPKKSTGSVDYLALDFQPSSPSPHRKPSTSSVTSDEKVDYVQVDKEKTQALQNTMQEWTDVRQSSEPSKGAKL
# UniProt P14136, whole entry, looked up: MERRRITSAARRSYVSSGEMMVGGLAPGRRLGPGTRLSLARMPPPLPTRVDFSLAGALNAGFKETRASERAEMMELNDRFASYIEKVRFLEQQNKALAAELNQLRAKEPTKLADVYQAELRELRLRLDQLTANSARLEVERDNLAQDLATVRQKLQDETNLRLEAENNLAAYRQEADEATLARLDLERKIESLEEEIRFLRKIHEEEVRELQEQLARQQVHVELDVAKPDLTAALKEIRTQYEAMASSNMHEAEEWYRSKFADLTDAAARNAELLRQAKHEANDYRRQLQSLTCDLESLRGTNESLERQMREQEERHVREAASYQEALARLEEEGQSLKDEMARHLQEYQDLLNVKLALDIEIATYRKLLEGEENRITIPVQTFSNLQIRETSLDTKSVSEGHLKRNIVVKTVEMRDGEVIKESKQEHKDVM
# UniProt P23769: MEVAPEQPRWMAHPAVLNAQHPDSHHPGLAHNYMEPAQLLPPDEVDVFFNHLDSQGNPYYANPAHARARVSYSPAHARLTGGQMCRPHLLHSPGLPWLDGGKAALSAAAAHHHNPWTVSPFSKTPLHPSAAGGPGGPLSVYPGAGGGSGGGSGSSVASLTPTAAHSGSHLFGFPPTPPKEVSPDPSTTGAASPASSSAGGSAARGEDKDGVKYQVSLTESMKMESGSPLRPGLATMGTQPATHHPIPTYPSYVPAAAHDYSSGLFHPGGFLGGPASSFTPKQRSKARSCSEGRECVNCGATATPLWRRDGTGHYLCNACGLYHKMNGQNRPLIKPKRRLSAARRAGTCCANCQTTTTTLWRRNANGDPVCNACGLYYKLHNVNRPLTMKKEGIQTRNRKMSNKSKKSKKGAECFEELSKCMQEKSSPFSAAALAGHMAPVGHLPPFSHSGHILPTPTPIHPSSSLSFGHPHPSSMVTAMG
# UniProt Q9NZC3: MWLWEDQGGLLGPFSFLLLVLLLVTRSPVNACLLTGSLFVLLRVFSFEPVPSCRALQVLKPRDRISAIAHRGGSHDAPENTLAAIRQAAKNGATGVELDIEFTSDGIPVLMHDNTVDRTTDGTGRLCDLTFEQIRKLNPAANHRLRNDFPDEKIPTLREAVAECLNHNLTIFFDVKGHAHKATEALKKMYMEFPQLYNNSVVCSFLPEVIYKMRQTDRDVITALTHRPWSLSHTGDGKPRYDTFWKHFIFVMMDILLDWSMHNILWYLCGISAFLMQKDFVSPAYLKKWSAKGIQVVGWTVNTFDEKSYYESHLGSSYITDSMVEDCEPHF
# UniProt Q8WTR4: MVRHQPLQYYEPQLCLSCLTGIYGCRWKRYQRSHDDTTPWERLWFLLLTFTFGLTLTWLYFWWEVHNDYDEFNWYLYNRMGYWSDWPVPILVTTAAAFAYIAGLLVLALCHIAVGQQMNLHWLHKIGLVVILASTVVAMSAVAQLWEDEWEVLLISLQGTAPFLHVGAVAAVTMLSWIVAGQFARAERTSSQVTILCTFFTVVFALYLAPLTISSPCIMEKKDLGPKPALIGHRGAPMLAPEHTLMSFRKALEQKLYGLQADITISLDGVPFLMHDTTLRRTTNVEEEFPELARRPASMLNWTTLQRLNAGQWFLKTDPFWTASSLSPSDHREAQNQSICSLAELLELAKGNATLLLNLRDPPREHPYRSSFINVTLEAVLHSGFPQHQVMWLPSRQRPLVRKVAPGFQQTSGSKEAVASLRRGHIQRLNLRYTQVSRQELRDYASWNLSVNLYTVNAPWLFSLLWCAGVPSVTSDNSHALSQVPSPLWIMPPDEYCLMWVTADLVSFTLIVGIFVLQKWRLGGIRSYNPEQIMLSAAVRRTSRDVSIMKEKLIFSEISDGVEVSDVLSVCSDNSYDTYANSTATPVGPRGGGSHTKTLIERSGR
# UniProt Q9UJY4: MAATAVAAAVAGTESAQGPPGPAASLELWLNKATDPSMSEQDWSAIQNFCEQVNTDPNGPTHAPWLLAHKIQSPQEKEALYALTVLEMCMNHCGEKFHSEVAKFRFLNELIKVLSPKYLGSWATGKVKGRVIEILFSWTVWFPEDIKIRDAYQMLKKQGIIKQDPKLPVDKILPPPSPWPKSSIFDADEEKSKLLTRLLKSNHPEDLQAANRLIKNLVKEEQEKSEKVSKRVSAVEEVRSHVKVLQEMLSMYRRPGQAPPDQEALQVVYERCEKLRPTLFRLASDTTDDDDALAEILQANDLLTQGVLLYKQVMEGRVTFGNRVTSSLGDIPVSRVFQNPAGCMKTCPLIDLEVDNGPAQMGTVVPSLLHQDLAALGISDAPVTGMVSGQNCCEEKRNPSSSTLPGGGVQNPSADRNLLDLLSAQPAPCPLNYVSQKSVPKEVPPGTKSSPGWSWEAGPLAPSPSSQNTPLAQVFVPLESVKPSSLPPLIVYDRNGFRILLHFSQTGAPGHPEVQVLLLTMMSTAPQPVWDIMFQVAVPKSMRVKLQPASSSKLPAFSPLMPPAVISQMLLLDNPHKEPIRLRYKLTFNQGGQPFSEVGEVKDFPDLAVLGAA
# UniProt Q10471: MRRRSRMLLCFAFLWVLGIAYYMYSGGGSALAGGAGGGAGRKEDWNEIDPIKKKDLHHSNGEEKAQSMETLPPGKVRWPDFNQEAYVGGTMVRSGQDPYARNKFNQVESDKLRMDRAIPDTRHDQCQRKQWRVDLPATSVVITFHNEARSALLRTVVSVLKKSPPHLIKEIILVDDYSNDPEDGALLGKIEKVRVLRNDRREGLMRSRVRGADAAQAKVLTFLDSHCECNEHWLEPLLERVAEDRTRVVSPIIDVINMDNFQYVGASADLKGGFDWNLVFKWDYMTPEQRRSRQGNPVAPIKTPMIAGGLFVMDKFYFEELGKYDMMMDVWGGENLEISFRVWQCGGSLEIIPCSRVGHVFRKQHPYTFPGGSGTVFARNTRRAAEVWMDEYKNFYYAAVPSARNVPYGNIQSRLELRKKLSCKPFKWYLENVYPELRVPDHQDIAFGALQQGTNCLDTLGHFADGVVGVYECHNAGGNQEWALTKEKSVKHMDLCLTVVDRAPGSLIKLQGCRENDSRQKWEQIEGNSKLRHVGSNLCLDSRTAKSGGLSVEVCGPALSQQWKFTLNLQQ
# UniProt Q969S9: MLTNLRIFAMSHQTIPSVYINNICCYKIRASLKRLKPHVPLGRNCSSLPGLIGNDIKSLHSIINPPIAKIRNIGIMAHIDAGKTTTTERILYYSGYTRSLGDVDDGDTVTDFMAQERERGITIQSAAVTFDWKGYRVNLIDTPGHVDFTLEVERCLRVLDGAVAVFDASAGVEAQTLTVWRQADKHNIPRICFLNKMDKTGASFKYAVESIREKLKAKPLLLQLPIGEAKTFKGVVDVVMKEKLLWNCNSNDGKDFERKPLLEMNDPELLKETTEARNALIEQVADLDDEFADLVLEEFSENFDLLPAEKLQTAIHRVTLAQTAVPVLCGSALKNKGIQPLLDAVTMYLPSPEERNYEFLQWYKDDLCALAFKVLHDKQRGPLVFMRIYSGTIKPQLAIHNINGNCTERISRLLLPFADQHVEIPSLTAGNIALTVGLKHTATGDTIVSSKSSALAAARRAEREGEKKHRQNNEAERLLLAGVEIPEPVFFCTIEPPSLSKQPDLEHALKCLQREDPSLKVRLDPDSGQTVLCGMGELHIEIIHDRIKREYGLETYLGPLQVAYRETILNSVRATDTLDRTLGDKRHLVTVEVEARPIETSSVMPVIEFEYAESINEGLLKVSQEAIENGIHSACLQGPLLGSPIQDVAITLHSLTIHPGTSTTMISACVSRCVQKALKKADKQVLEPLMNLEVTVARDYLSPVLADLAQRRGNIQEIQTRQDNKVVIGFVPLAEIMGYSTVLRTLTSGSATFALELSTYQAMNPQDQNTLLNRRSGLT
# UniProt O43524: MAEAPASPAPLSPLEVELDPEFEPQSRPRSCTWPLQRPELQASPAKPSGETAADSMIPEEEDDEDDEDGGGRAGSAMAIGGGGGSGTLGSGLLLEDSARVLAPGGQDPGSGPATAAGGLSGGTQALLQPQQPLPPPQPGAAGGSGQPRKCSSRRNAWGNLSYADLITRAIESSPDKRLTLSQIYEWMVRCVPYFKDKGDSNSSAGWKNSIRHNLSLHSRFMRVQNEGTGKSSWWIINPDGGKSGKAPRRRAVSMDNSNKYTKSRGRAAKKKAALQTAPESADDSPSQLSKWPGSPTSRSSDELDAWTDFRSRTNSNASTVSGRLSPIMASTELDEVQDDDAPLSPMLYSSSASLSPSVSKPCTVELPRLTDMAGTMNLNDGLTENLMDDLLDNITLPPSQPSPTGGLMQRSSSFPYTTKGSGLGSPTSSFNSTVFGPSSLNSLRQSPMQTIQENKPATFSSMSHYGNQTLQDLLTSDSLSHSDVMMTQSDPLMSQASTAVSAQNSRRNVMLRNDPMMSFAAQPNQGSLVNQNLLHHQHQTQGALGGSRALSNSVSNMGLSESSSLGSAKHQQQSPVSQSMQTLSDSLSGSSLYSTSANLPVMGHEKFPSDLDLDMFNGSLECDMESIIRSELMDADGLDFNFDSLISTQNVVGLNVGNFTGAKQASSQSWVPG
# UniProt Q8IWF2: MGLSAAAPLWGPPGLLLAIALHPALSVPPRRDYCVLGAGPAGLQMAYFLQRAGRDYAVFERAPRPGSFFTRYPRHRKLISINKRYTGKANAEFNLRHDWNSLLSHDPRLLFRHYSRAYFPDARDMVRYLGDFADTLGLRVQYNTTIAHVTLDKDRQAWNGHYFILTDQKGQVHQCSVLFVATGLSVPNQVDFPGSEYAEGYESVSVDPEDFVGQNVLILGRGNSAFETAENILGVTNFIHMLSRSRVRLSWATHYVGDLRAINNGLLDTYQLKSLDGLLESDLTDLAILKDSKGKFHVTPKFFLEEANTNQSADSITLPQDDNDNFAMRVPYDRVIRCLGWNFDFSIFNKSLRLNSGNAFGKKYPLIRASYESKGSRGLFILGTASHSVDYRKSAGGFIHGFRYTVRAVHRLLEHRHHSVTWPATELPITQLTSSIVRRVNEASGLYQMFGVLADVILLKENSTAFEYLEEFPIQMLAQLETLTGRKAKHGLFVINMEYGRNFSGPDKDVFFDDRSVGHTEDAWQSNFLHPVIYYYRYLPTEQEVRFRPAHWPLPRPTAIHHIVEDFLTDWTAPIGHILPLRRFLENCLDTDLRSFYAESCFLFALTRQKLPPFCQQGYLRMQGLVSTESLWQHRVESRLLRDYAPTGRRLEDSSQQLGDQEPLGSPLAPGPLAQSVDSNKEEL
# The list shows a part of the results.
# How the values were obtained:
# Test in all cases: log2 fold change, soluble protein after heating vs DMSO (PISA); higher = thermal stabilisation; K562 cells, 10 uM, 30 min; active = over 0.2 and 3.5 SD of the protein, either way, in both replicates (recomputed)
# [1] = compound: CC[C@@H]1C(=O)N(C)c2cnc(Nc3ccc(C(=O)NC4CCN(C)CC4)cc3OC)nc2N1C1CCCC1
# Outline: (§1)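 K562 cells at 2×10^6 cells/mL were treated with 10 μM compound for 30 min. Aliquots were heated for 3 min across 48°C-58°C, pooled, and extracted in PBS with 0.5% NP-40 at 4°C; soluble protein was the supernatant after 21,000xg for 90 min. Soluble protein was quantified by TMTpro 16plex LC-MS/MS with channel sums equalised, and reported as log2 fold change in thermal stability against DMSO controls, with values from duplicates.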
# epoxomicin = compound: CC[C@H](C)[C@@H](C(=O)N[C@@H]([C@@H](C)O)C(=O)N[C@@H](CC(C)C)C(=O)[C@]1(CO1)C)NC(=O)[C@H]([C@@H](C)CC)N(C)C(=O)C [epoxomicin]
# Outline: as §1
# [2] = compound: CCn1c(C(=O)N(C2CC2)C2CC2)cc2c3c(ncn3C)c(Nc3cc(C)n(C)n3)nc21
# Outline: as §1
# [3] = compound: CCn1cc(-c2ccnc3[nH]c(-c4cccc(CN(C)C)c4)cc23)c(-c2ccc(NC(=O)N(C)C)cc2)n1
# Outline: as §1
# [4] = compound: CN(C)CC(=O)Nc1ccc2[nH]c(=O)c3ccccc3c2c1
# Outline: as §1
# [5] = compound: CN1CCC(CNc2ccc3ncc(-c4cccc(OC(F)(F)F)c4)n3n2)CC1
# Outline: as §1
# sotrastaurin = compound: CN1CCN(c2nc(C3=C(c4c[nH]c5ccccc45)C(=O)NC3=O)c3ccccc3n2)CC1 [sotrastaurin]
# Outline: as §1
# Tubastatin A = compound: CN1CCc2c(c3ccccc3n2Cc2ccc(C(=O)NO)cc2)C1 [Tubastatin A]
# Outline: as §1
# [6] = compound: CNC(=O)C1=CC=CC=C1NC2=NC(=NC=C2Cl)NC3=C(C=C(C=C3)N4CCOCC4)OC
# Outline: as §1
# defactinib = compound: CNC(=O)c1ccc(Nc2ncc(C(F)(F)F)c(NCc3nccnc3N(C)S(C)(=O)=O)n2)cc1 [defactinib]
# Outline: as §1
# rucaparib = compound: CNCc1ccc(-c2[nH]c3cc(F)cc4c3c2CCNC4=O)cc1 [rucaparib]
# Outline: as §1
# encorafenib = compound: COC(=O)N[C@@H](C)CNc1nccc(-c2cn(C(C)C)nc2-c2cc(Cl)cc(NS(C)(=O)=O)c2F)n1 [encorafenib]
# Outline: as §1
# [7] = compound: COC(=O)[C@H](CCSC)NC(=O)C1=C(C=C(C=C1)NC[C@H](CS)N)C2=CC=CC=C2
# Outline: as §1
# [8] = compound: CC[C@H](C)N1C=C(C2=C(C=C(C=C21)C3=CN=C(C=C3)N4CCNCC4)C(=O)NCC5=C(C=C(NC5=O)C)C)C
# Outline: as §1
# rosiglitazone = compound: CN(CCOC1=CC=C(C=C1)C[C@H]2C(=O)NC(=O)S2)C3=CC=CC=N3 (racemic) [rosiglitazone]
# Outline: as §1
# alvocidib = compound: CN1CC[C@H](c2c(O)cc(O)c3c(=O)cc(-c4ccccc4Cl)oc23)[C@H](O)C1 [alvocidib]
# Outline: as §1
# volasertib = compound: CC[C@@H]1C(=O)N(C)c2cnc(Nc3ccc(C(=O)N[C@H]4CC[C@H](N5CCN(CC6CC6)CC5)CC4)cc3OC)nc2N1C(C)C [volasertib]
# Outline: as §1
# [9] = compound: CN1C2=C(C3=C1C(=O)N(N=C3)CC4=CC(=CC=C4)N)SC(=C2)S(=O)C
# Outline: as §1
# saracatinib = compound: CN1CCN(CCOc2cc(OC3CCOCC3)c3c(Nc4c(Cl)ccc5c4OCO5)ncnc3c2)CC1 [saracatinib]
# Outline: as §1
# [10] = compound: CNc1nc(-c2ccc3c(N)n[nH]c3c2)cc(N2C[C@@H](C(=O)NC3CCCCC3)CC[C@H]2C)n1
# Outline: as §1
Target,log2 fold change [1],log2 fold change (epoxomicin),log2 fold change [2],log2 fold change [3],log2 fold change [4],log2 fold change [5],log2 fold change (sotrastaurin),log2 fold change (Tubastatin A),log2 fold change [6],log2 fold change (defactinib),log2 fold change (rucaparib),log2 fold change (encorafenib),log2 fold change [7],log2 fold change [8],log2 fold change (rosiglitazone),log2 fold change (alvocidib),log2 fold change (volasertib),log2 fold change [9],log2 fold change (saracatinib),log2 fold change [10]
GAA (UniProt P10253),inactive: -0.129,inactive: -0.013,inactive: -0.377,inactive: 0.013,inactive: 0.105,inactive: -0.073,inactive: -0.021,inactive: 0.141,inactive: -0.329,inactive: -0.158,inactive: 0.018,inactive: 0.005,inactive: -0.07,,,,,,,
FUOM (UniProt A2VDF0),inactive: 0.085,,,,inactive: -0.175,,inactive: 0.135,inactive: 0.011,,inactive: 0.065,inactive: -0.01,inactive: -0.156,inactive: 0.066,inactive: 0.105,inactive: -0.027,inactive: -0.092,,,,
GDF15 (UniProt Q99988),inactive: -0.153,,,,inactive: -0.071,,,inactive: 0.398,,inactive: -0.097,inactive: 0.165,inactive: 0.144,inactive: 0.007,inactive: 0.088,inactive: -0.023,inactive: 0.054,inactive: 0.061,inactive: 0.17,inactive: -0.139,inactive: -0.022
FUCA2 (UniProt Q9BTY2),active: -1.11,inactive: -0.024,,inactive: 0.003,inactive: -0.019,inactive: -0.029,inactive: -0.021,inactive: -0.026,inactive: 0.028,inactive: -0.045,inactive: -0.139,inactive: 0.012,inactive: 0.038,inactive: 0.001,,,active: -1.04,inactive: -0.033,inactive: -0.013,inactive: 0.003
GALNT1 (UniProt Q10472),inactive: -0.06,inactive: -0.068,,inactive: -0.041,inactive: -0.011,inactive: 0.106,inactive: 0.03,inactive: 0.064,inactive: 0.039,inactive: -0.046,inactive: 0.008,inactive: -0.037,inactive: -0.005,inactive: -0.011,,,active: -0.218,inactive: -0.074,inactive: -0.026,inactive: -0.047
GAB2 (UniProt Q9UQC2),inactive: -0.203,inactive: 0.065,,inactive: 0.034,inactive: -0.016,inactive: -0.458,inactive: 0.029,inactive: -0.024,inactive: -0.575,inactive: -0.194,inactive: 0.162,inactive: -0.023,inactive: 0.116,,,,inactive: -0.009,inactive: 0.002,inactive: -0.164,inactive: -0.137
GFAP isoform 2 (UniProt P14136),inactive: -0.02,,,inactive: -0.798,,inactive: 0.088,,,,,inactive: 0.068,inactive: -0.064,,,,,,,,
GATA2 (UniProt P23769),inactive: 0.178,,inactive: 0.043,inactive: -0.074,inactive: -0.126,inactive: 0.114,inactive: -0.085,,inactive: -0.098,inactive: 0.269,inactive: 0.158,inactive: -0.039,inactive: 0.076,inactive: -0.001,inactive: 0.016,inactive: 0.138,inactive: 0.086,inactive: 0.058,inactive: 0.117,inactive: -0.051
GALNT7 (UniProt H0YAH3),inactive: -0.276,inactive: 0.038,,,inactive: -0.061,,,,,inactive: -0.166,inactive: -0.325,inactive: 0.049,inactive: 0.158,,inactive: 0.043,inactive: 0.011,,,,
GDE1 (UniProt Q9NZC3),inactive: 0.033,inactive: -0.046,,,inactive: -0.049,,inactive: 0.051,active: -0.316,inactive: -0.003,inactive: -0.017,inactive: 0.009,inactive: -0.017,inactive: 0.024,inactive: -0.092,,,inactive: 0.053,inactive: -0.016,inactive: 0.029,inactive: 0.01
GDPD5 (UniProt Q8WTR4),inactive: -0.103,inactive: 0.046,,,,,,,,,inactive: 0.009,inactive: 0.114,,,inactive: 0.044,,,,,
GGA2 (UniProt Q9UJY4),inactive: 0.022,inactive: -0.033,,,inactive: -0.021,,inactive: 0.053,inactive: -0.088,inactive: -0.025,inactive: 0.025,inactive: -0.064,inactive: 0.068,inactive: 0.122,inactive: 0.038,,,inactive: 0.059,inactive: -0.02,inactive: -0.054,inactive: -0.054
GALNT2 (UniProt Q10471),inactive: -0.082,inactive: -0.004,,inactive: -0.034,inactive: -0.021,inactive: -0.077,inactive: 0.005,inactive: 0.013,inactive: 0.004,inactive: 0.023,inactive: -0.046,inactive: 0.036,inactive: -0.017,inactive: 0.027,,,active: -0.377,inactive: -0.079,inactive: -0.025,inactive: -0.015
GFM2 (UniProt Q969S9),inactive: 0.04,,,,,,,,,,inactive: 0.468,inactive: 0.217,,,inactive: -0.018,,,,,
GANAB (UniProt Q14697),inactive: -0.311,,,,,,,inactive: -0.109,,,inactive: -0.334,inactive: 0.151,,,,,inactive: 0.082,,,
FOXO3 (UniProt O43524),inactive: -0.092,inactive: 0.007,,inactive: -0.004,inactive: 0.055,inactive: -0.188,inactive: 0.004,inactive: 0.051,inactive: -0.167,inactive: -0.037,inactive: -0.077,inactive: 0.16,inactive: 0.021,,,,inactive: -0.061,inactive: 0.158,inactive: -0.017,inactive: -0.208
G6PC3 (UniProt Q9BUM1),inactive: -0.032,,inactive: -0.108,,inactive: 0.064,,,,inactive: -0.003,inactive: -0.177,inactive: -0.069,inactive: 0.101,inactive: -0.021,inactive: -0.087,,,inactive: -0.004,,,
FOXRED2 (UniProt Q8IWF2),inactive: 0.089,inactive: -0.187,inactive: -0.1,,inactive: -0.115,,,inactive: 0.098,inactive: 0.11,inactive: 0.041,inactive: 0.113,inactive: 0.229,inactive: 0.02,,,inactive: -0.075,inactive: 0.092,inactive: 0.095,inactive: -0.125,inactive: 0.017

# Looked up above.
# log2 fold change [5], FUCA2 (UniProt Q9BTY2) is entered as inactive: -0.029
# log2 fold change [9], GDF15 (UniProt Q99988) is entered as inactive: 0.17
